No constants are given. Whether binding was seen depends on the method and setting. In cells and extracts the contact can be indirect. Some binding calls cover weakened binding; strength is not graded here.
Legend:
[1] = target: insulin-like growth factor 1 receptor (IGF1R), endogenous in LX-2 cells (human (endogenous in LX-2)) (UniProt P08069); test: co-IP; IGF1R antibody (CST) pre-incubated on Protein A/G magnetic beads, incubated overnight with lysate of LX-2 or HSC-T6 cells (NC and OE groups, irradiation with 6 Gy or 8 Gy); DNA-PKcs detected by Western blot
[2] = target: IGF1R overexpressed in LX-2 cells (OE) (UniProt P08069); test: as above

The chains behind the UniProt entries cited, without tags or fusion partners. Where a name states a change or a piece, a line headed by the entry shows the natural chain unless it says otherwise.
UniProt P08069: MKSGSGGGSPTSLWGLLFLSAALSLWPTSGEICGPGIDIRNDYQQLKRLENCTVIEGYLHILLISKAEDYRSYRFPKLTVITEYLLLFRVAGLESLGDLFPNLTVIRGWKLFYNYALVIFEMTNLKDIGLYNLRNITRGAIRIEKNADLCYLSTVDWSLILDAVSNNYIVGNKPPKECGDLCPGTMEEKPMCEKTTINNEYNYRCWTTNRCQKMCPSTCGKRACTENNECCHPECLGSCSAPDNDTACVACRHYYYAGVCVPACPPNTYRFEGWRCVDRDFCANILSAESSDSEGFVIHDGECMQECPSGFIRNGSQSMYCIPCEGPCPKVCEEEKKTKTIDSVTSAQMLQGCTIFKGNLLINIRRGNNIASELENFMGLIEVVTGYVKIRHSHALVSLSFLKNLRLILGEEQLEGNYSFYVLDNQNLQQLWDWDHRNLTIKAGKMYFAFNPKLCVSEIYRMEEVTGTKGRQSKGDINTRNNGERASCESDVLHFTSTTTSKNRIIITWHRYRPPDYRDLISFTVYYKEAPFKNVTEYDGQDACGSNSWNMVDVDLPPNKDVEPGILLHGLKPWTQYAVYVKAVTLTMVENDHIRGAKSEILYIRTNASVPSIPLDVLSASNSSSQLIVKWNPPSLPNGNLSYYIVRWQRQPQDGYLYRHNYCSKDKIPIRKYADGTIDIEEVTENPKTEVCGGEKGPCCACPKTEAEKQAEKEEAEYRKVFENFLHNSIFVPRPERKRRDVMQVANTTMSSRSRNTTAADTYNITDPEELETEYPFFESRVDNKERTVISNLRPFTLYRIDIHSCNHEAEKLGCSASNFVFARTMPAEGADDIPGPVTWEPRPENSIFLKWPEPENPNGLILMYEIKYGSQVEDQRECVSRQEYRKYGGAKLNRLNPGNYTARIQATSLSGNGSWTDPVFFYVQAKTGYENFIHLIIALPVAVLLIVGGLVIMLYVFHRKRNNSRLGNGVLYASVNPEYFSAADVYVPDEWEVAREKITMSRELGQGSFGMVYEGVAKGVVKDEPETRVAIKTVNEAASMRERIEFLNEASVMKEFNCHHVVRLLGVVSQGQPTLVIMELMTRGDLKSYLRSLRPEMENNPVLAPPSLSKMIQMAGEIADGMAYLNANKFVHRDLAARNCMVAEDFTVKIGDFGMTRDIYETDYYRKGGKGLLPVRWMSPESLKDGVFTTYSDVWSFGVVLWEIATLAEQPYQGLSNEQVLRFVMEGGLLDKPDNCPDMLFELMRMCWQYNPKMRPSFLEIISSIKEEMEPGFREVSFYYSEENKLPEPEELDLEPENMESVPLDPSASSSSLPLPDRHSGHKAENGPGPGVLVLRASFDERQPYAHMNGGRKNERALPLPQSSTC
UniProt P78527: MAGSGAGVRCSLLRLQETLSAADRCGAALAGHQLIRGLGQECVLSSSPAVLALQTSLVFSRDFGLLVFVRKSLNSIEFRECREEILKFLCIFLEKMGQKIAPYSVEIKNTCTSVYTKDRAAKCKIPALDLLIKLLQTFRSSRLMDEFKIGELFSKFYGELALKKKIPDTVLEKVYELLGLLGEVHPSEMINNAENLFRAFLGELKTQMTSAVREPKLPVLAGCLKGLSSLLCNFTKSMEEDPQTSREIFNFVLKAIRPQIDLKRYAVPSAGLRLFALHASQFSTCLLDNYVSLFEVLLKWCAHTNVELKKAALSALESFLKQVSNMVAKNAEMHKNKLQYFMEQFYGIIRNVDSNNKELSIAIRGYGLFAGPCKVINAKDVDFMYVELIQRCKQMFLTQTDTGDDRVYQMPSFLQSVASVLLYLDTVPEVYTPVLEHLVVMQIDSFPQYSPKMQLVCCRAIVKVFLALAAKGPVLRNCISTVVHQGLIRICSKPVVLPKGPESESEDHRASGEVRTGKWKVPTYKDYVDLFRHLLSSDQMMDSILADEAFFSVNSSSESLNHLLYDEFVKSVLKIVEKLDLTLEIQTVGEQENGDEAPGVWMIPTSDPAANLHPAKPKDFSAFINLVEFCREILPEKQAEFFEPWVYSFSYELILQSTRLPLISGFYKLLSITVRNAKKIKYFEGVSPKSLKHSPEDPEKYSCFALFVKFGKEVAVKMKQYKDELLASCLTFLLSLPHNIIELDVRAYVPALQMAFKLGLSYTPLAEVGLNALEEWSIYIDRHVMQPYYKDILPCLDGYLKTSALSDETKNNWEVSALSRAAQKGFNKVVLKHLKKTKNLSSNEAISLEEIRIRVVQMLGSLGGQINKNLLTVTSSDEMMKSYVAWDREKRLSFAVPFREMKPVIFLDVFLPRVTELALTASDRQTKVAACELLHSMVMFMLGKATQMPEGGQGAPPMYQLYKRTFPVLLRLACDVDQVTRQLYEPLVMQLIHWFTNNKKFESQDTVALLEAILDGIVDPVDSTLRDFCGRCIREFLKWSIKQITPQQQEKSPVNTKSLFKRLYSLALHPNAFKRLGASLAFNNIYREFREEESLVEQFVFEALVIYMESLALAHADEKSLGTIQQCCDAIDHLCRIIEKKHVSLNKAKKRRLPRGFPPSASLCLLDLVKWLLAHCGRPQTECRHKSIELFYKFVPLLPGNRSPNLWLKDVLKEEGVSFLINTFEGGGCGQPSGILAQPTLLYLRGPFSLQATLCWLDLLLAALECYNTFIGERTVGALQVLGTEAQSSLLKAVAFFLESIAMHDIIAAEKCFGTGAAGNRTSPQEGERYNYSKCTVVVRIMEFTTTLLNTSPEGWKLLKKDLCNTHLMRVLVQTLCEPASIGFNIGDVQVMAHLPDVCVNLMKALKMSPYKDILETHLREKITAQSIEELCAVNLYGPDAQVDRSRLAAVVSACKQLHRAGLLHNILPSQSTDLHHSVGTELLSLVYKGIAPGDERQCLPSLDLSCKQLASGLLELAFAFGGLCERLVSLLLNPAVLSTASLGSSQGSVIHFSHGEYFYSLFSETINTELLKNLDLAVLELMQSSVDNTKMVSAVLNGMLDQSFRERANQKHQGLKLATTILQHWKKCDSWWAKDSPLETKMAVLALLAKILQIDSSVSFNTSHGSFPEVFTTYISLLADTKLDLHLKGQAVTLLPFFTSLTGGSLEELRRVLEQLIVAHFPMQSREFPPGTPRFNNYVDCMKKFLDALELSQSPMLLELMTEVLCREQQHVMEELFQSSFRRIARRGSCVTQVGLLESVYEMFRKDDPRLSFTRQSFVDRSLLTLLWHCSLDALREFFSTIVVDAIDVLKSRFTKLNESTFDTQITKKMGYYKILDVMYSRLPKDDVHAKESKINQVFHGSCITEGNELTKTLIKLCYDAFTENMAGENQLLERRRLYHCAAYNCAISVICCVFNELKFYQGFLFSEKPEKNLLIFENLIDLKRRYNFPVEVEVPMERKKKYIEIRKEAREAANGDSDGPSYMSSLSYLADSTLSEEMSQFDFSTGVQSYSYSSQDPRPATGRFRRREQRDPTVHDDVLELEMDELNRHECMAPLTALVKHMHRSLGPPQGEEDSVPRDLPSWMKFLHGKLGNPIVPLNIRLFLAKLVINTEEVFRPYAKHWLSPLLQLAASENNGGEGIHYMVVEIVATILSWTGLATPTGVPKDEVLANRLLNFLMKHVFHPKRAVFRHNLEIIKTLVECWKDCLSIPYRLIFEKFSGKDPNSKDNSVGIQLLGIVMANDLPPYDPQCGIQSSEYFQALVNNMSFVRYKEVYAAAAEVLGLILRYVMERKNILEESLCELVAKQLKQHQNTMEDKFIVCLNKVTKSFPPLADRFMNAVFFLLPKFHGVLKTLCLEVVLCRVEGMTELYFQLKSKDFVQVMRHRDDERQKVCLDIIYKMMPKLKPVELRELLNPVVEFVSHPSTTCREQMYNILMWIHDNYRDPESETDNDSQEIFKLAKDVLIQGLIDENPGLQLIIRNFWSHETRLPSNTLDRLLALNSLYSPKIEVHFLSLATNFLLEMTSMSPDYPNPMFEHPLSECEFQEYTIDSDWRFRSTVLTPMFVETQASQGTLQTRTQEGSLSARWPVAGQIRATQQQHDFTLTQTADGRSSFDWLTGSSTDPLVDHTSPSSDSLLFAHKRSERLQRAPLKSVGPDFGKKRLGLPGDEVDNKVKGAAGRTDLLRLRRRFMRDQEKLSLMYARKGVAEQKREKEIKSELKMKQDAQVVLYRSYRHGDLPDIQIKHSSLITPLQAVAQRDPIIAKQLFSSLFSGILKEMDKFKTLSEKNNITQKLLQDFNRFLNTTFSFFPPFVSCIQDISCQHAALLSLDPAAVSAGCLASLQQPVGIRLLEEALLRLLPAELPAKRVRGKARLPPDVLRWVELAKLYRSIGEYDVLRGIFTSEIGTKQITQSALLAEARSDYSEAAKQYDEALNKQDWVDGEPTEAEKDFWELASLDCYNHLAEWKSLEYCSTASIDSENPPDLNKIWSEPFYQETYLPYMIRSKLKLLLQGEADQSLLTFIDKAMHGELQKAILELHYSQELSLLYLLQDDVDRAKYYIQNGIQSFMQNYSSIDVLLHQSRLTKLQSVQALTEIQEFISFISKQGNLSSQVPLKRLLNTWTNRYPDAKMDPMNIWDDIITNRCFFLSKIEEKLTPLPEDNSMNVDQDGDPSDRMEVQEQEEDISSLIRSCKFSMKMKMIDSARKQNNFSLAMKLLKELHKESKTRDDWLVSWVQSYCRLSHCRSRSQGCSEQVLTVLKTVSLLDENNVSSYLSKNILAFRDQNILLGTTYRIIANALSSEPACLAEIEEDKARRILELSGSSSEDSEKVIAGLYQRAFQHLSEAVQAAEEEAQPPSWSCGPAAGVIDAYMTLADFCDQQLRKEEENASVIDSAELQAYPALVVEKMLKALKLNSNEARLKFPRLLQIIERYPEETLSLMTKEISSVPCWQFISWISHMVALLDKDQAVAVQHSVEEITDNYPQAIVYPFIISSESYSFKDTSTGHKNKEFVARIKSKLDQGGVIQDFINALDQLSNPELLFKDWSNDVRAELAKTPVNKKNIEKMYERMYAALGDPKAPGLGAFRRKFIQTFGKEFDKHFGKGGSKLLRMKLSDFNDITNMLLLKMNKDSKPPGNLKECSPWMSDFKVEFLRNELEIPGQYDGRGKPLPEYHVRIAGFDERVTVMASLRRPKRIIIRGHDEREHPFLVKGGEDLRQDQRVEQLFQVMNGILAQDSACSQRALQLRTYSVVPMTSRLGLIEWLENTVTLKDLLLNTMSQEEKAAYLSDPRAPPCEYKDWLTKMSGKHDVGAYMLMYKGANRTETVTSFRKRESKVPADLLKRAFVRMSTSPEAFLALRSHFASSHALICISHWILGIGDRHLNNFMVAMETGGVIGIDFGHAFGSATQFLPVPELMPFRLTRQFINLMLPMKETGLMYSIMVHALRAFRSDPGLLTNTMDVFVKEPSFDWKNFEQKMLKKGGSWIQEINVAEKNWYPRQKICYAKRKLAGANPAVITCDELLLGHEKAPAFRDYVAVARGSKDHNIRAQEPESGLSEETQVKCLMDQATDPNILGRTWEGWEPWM

binding [1]: binds | binding [2]: binds
Substance: DNA-dependent protein kinase catalytic subunit (DNA-PKcs), endogenous in LX-2 cells (from UniProt P78527 1-4128) (enzyme)
